Measurements from PMC9228878.
These are yes or no findings as the source states them, for the method shown. In cells and extracts the contact can be indirect. Sequences can lack the tags named with a protein.

Amino acid sequences for entries named in this document (tags omitted). Residues count along the entry.
UniProt P03665, residues 22-426: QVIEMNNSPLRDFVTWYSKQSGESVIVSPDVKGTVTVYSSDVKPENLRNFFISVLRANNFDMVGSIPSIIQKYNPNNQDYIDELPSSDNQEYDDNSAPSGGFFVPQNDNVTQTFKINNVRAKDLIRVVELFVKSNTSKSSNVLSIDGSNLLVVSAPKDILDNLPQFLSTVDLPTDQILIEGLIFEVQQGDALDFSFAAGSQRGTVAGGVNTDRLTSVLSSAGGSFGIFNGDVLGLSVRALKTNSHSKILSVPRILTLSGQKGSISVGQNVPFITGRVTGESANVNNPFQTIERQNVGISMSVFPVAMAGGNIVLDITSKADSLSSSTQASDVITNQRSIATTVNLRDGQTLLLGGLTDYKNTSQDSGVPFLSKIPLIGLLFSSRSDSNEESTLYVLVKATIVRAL

Target: T1, HisG1p (M13 gene 1 protein with an N-terminal 10xhis tag) (bacteriophage M13) (UniProt P03656)
T1 sequence: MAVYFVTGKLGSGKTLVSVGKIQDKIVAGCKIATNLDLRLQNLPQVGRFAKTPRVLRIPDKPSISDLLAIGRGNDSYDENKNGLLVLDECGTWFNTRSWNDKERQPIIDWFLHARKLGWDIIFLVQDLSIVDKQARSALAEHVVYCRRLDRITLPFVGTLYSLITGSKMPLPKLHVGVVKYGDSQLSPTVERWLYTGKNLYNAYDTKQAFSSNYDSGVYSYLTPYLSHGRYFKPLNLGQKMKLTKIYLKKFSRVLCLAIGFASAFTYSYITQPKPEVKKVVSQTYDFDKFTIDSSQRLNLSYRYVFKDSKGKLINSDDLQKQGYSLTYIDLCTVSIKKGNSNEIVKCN
Experiment: pull-down; Ni-NTA affinity chromatography by the his tag from membranes of E. coli M15F+ (infected with M13am1) solubilised with 2% lauroyl sarcosine; beads with 10 mM imidazole and 10% glycerol, 1.5 h, 4 °C; imidazole elution; fractions on SDS-PAGE, Coomassie

With “G4p secretin of bacteriophage M13 (from UniProt P03665 22-426)” the binding was “no binding”.
